Laboratory results as given in PubChem BioAssay (NCATS).
Where “and” joins values, the source holds several entries; their conditions need not be identical. Equal values may be shown once. This is one part of the list. These are further read-outs of the screen, such as a control signal, another cell line or another target. No call is given for them. Most of these compounds were active or inconclusive in the main read-out, so they are no random draw. Words in brackets tell the shape of the fitted curve; partial curves, single points and poor fits give uncertain potencies.

assay: qHTS Assay for Inhibitors of PDE-IV (AID 607); conditions: HEK293 ACTOne CNG channel cells, membrane potential fluorescence; measured here: parental cell counter-screen
Outline: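 Cell-based read-out of cAMP via a modified cyclic nucleotide-gated channel and membrane potential dye (535/590 nm) in HEK293 cells expressing PDE4 endogenously. Compounds tested up to 22.9 uM final; 100 uM RO 20-1724 reference.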

Question: With `Cc1cc(C)c(S(=O)(=O)Nc2ccccc2C(F)(F)F)c(C)c1` as the compound, how does the AC50 read?
Answer: 15.8 µM [rising, single point]

Question: For `COc1ccccc1-c1cncnc1NCc1cccs1`, which AC50 is on record?
Answer: 15.8 µM [rising, single point]

Question: For `COc1ccccc1-c1nc(N(C)Cc2ccco2)c2ccccc2n1`, which AC50 is on record?
Answer: 10 µM [rising, single point]

Question: For `COc1ccc(CNc2ncnc3ccc(-c4ccccc4OC)cc23)c(OC)c1`, which AC50 is on record?
Answer: 15.8 µM [rising, single point]

Question: Which AC50 does the source give for `COc1cc2cc3c4c(cc(OC)c(OC)c4c2cc1OC)CCN3C` here?
Answer: 15.8 µM [falling, partial curve, poor fit]

Question: Which AC50 does the source give for `COc1ccccc1CNc1nc(-c2ccc(C(=O)N(C)C)cc2)nc2ccccc12` here?
Answer: 10 µM [rising, single point]

Question: With `COc1cccc(Cn2c(=O)c(C)nc3cnc(OCc4ccccc4)nc32)c1` as the compound, how does the AC50 read?
Answer: 10 µM [rising, partial curve]

Question: For `COc1ccccc1CNc1ncnc2ccc(-c3ccc4c(c3)OCO4)cc12`, which AC50 is on record?
Answer: 12.6 µM [rising, single point]

Question: With `COc1ccccc1N1CCN(C[C@@H](O)COc2cccc3ccccc23)CC1` as the compound, how does the AC50 read?
Answer: 7.94 µM [rising, partial curve, poor fit]

Question: With `Cc1noc(C)c1C(=O)N1CCC2(CCCN(c3ncccn3)C2)CC1` as the compound, how does the AC50 read?
Answer: 3.98 µM [rising, single point]

Question: With `COc1ccccc1-c1nc(NCc2ccccc2)c2ccccc2n1` as the compound, how does the AC50 read?
Answer: 12.6 µM [rising, partial curve]

Question: With `CC(C)C[C@@H](NC(=O)OCC1c2ccccc2-c2ccccc21)C(=O)O` as the compound, how does the AC50 read?
Answer: 15.8 µM [rising, single point]

Question: For `O=c1cc(-c2ccccc2)oc2c1ccc1ccccc12`, which AC50 is on record?
Answer: 3.16 µM [rising, full curve]

Question: Which AC50 does the source give for `COc1cccc(-c2ccc3ncnc(NCc4cccnc4)c3c2)c1` here?
Answer: 12.6 µM [rising, single point]

Question: For `Nc1cc(=O)[nH]c(N)n1`, which AC50 is on record?
Answer: 0.0794 µM [falling, full curve, poor fit]

Question: With `Cc1ccc(S(=O)(=O)/C=C\C#N)cc1` as the compound, how does the AC50 read?
Answer: 15.8 µM [rising, partial curve]

Question: Which AC50 does the source give for `COc1cccc(-c2ccc3ncnc(Nc4ccccc4)c3c2)c1` here?
Answer: 10 µM [rising, partial curve]

Question: With `Cc1c(-c2ccccc2)oc2cc(O)ccc2c1=O` as the compound, how does the AC50 read?
Answer: 12.6 µM [rising, single point]

Question: For `COc1cccc(Cn2c(=O)c(-c3ccccc3)nc3cnc(OC)nc32)c1`, which AC50 is on record?
Answer: 10 µM [falling, partial curve, poor fit]

Question: With `Clc1ccccc1CNCC1CCC(CNCc2ccccc2Cl)CC1` (stereo not given) as the compound, how does the AC50 read?
Answer: 12.6 µM [rising, partial curve]

Question: Which AC50 does the source give for `Cc1ccccc1-c1nc(N(C)Cc2ccco2)c2ccccc2n1` here?
Answer: 15.8 µM [rising, single point]

Question: Which AC50 does the source give for `CNCC[C@@H](Oc1ccccc1C)c1ccccc1` here?
Answer: 15.8 µM [rising, single point]

Question: With `COc1cccc(OC)c1OCCNC[C@@H]1COc2ccccc2O1` as the compound, how does the AC50 read?
Answer: 15.8 µM [rising, partial curve, poor fit] and 12.6 µM [rising, partial curve]

Question: Which AC50 does the source give for `Cn1cccc1C(=O)N1CCC2(CCCN(c3ccccn3)C2)CC1` here?
Answer: 3.98 µM [rising, partial curve, poor fit]

Question: Which AC50 does the source give for `COc1ccc(CNc2ncncc2-c2ccccc2OC)c(OC)c1` here?
Answer: 10 µM [rising, single point]

Question: With `CN(Cc1ccco1)c1ncnc2ccc(-c3ccccc3Cl)cc12` as the compound, how does the AC50 read?
Answer: 12.6 µM [rising, partial curve]

Question: Which AC50 does the source give for `COc1c(-c2ccccc2)oc2c(ccc3occc32)c1=O` here?
Answer: 15.8 µM [rising, partial curve]

Question: For `Cc1c(Cl)cccc1Nc1ccccc1C(=O)O`, which AC50 is on record?
Answer: 7.94 µM [rising, partial curve]

Question: With `COc1ccccc1-c1cc(=O)c2cc(O)ccc2o1` as the compound, how does the AC50 read?
Answer: 20 µM [rising, partial curve, poor fit]

Question: For `CCCCCCCNS(=O)(=O)c1cccc2c(Cl)cccc12`, which AC50 is on record?
Answer: 5.01 µM [rising, partial curve, poor fit]

Question: With `CCOC(=O)C1=C[C@@]2(CC)CCCN3CCc4c(n1c1ccccc41)[C@H]32` as the compound, how does the AC50 read?
Answer: 25.1 µM [rising, single point]

Question: With `COc1ccccc1CNc1ccnc(-c2ccccc2CN(C)C)n1` as the compound, how does the AC50 read?
Answer: 6.31 µM [rising, partial curve]

Question: With `COc1ccc(CNc2ncncc2-c2ccc3c(c2)OCO3)c(OC)c1` as the compound, how does the AC50 read?
Answer: 10 µM [rising, partial curve, poor fit]

Question: With `Cc1cccc(Nc2cc(Cl)nc(SCC(=O)O)n2)c1C` as the compound, how does the AC50 read?
Answer: 15.8 µM [rising, single point]

Question: Which AC50 does the source give for `Cn1cccc1C(=O)N1CCC2(CCCN(C(=O)Nc3cccc(C#N)c3)C2)CC1` here?
Answer: 0.631 µM [rising, single point]

Question: Which AC50 does the source give for `COc1ccccc1CNc1nc(-c2cccc(NS(C)(=O)=O)c2)nc2ccccc12` here?
Answer: 15.8 µM [rising, single point]

Question: Which AC50 does the source give for `Cc1cccc(CNc2ccnc(-c3ccccc3C(F)(F)F)n2)c1` here?
Answer: 15.8 µM [rising, partial curve]

Question: For `CS(=O)(=O)c1ccc(-c2cc(Br)sc2-c2ccc(F)cc2)cc1`, which AC50 is on record?
Answer: 15.8 µM [rising, single point]

Question: For `O=C(O)CC/C=C\C[C@@H]1CO[C@H](c2ccccc2Cl)O[C@@H]1c1ccccc1O`, which AC50 is on record?
Answer: 15.8 µM [rising, single point]

Question: With `COc1cccc(Cn2c(=O)c(CCc3ccccc3)nc3cnc(OC)nc32)c1` as the compound, how does the AC50 read?
Answer: 12.6 µM [rising, partial curve]
